Laboratory results reported in US20230301998A1, “METHODS AND COMPOSITIONS FOR INDUCTION OF ANTITUMOR IMMUNITY” (Sanford Burnham Prebys Medical Discovery Institute, priority 2020, published 2023).
These are yes or no findings as the source states them, for the method shown. Some binding calls cover weakened binding; strength is not graded here. Where a sequence is shown, tags or fusion partners need not be part of it.

Molecular target: T1, Flag-tagged SHARPIN (human), Q9H0F6
T1 chain: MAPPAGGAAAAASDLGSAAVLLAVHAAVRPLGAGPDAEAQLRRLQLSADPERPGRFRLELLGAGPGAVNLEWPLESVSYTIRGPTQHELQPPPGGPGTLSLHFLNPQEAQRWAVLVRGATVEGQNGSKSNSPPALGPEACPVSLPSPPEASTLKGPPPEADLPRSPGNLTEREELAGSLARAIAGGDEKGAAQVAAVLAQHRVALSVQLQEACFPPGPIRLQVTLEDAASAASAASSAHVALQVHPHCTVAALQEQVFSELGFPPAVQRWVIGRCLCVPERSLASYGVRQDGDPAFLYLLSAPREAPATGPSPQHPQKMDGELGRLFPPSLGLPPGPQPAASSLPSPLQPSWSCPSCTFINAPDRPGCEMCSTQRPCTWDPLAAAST
Assay: Flag IP of Flag-SHARPIN from WM115 lysate, on-bead tryptic digestion, LC/MS-MS
Settings: remark: other sources report otherwise

binding: binds
B1: RBCK1, Q9BYM8 1-510 (protein, human, UniProt Q9BYM8 1-510, looked up)
chain: MDEKTKKAEEMALSLTRAVAGGDEQVAMKCAIWLAEQRVPLSVQLKPEVSPTQDIRLWVSVEDAQMHTVTIWLTVRPDMTVASLKDMVFLDYGFPPVLQQWVIGQRLARDQETLHSHGVRQNGDSAYLYLLSARNTSLNPQELQRERQLRMLEDLGFKDLTLQPRGPLEPGPPKPGVPQEPGRGQPDAVPEPPPVGWQCPGCTFINKPTRPGCEMCCRARPEAYQVPASYQPDEEERARLAGEEEALRQYQQRKQQQQEGNYLQHVQLDQRSLVLNTEPAECPVCYSVLAPGEAVVLRECLHTFCRECLQGTIRNSQEAEVSCPFIDNTYSCSGKLLEREIKALLTPEDYQRFLDLGISIAENRSAFSYHCKTPDCKGWCFFEDDVNEFTCPVCFHVNCLLCKAIHEQMNCKEYQEDLALRAQNDVAARQTTEMLKVMLQQGEAMRCPQCQIVVQKKDGCDWIRCTVCHTEICWVTKGPRWGPGGPGDTSGGCRCRVNGIPCHPSCQNCH
